Test results from publication PMC12203675.
Changes are numbered by the printed parent chain. Results are given in words; binding and its absence hold for the method and conditions named. Binding seen in cells or lysates may run through a third protein. Some entries that bind do so weakly or less than the wild type. For part of these data: Sequences can lack the tags named with a protein.

Sequences of proteins named here, by UniProt entry; tags and fusion partners are left off.
UniProt P35700: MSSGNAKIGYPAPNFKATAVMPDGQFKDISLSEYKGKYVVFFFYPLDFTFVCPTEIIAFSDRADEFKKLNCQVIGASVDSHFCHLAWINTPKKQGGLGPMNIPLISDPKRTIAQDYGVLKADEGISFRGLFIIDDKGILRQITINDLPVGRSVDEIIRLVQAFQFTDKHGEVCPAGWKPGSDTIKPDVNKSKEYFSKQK

T1: FLAG-OTUD1 (ovarian tumor deubiquitinase 1) (UniProt Q5VV17)
T1 sequence: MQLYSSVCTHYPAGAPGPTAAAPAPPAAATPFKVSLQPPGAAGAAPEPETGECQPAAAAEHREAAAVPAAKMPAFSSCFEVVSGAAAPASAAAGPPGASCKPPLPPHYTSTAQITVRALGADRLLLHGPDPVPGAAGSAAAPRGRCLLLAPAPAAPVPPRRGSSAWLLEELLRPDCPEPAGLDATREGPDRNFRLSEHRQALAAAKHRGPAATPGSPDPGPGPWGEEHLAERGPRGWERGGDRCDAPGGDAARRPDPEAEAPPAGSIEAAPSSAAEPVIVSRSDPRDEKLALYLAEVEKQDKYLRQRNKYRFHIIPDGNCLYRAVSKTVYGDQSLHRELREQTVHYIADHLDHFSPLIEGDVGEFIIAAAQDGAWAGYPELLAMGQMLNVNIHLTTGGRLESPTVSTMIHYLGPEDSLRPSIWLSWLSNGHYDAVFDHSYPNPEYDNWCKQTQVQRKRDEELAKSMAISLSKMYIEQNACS

T2: FLAG-OTUD1(C320S) (UniProt Q5VV17)
T2 sequence: T1 sequence with C320S

T3: OTUD1 in bone marrow-derived macrophages (mouse (endogenous in BMDMs)) (UniProt Q9CUB6)
T3 sequence: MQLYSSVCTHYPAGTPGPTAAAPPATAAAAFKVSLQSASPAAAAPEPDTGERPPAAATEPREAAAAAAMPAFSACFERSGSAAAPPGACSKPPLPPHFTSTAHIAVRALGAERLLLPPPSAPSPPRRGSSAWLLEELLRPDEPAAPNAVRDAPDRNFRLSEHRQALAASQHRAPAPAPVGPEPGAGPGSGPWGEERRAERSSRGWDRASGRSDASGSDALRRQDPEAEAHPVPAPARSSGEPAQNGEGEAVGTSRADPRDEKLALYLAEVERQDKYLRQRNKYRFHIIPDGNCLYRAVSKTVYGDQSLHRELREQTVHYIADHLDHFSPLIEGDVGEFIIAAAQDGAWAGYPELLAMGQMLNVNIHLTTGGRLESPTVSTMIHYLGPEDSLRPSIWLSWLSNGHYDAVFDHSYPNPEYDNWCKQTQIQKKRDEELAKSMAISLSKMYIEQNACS

B1: GFP-PRDX1 (peroxiredoxin 1) (protein, UniProt Q06830 1-199)
chain: MSSGNAKIGHPAPNFKATAVMPDGQFKDISLSDYKGKYVVFFFYPLDFTFVCPTEIIAFSDRAEEFKKLNCQVIGASVDSHFCHLAWVNTPKKQGGLGPMNIPLVSDPKRTIAQDYGVLKADEGISFRGLFIIDDKGILRQITVNDLPVGRSVDETLRLVQAFQFTDKHGEVCPAGWKPGSDTIKPDVQKSKEYFSKQK
B2: PRDX1 in bone marrow-derived macrophages (protein, UniProt P35700 1-199)
chain: B1 chain with H10Y, D33E, E64D, V88I, V105I, V144I, T156I, L157I, Q189N

How the values were obtained:
[1] = target: T1, FLAG-OTUD1 (ovarian tumor deubiquitinase 1); assay: co-IP; HEK-293T cells co-transfected with the plasmids; lysates with antibody overnight at 4°C, Protein A + G Agarose 4 h at 4°C, immunoblot; in Figure 4G OTUD1 precipitated with an anti-FLAG antibody
FLAG-OTUD1(C320S) = target: T2, FLAG-OTUD1(C320S); assay: as above
[2] = target: T3, OTUD1 in bone marrow-derived macrophages (mouse (endogenous in BMDMs)); assay: co-IP; BMDM lysates with antibody overnight at 4°C, Protein A + G Agarose 4 h at 4°C, immunoblot

| Binder | binding [1] | binding (FLAG-OTUD1(C320S)) | binding [2] |
| --- | --- | --- | --- |
| B1 | binds | binds |  |
| B2 |  |  | binds |
